Test results as given in paper PMC12040169 (PLOS Biology, 2025).
The list shows a part of the results.

These molecules were tested on T1, CTL2-GFP (C. trachomatis L2/434/Bu, GFP-expressing). Details: bulk GFP, single well; 28.5 h, 10 µM; inhibitor.
T1 construct: L2/434/Bu, GFP-expressing
Design: species or system HeLa; Intracellular C. trachomatis growth in HeLa cells, bulk GFP fluorescence relative to DMSO
In the case of `COc1cccc(CC(=O)NCC(c2cccs2)N2CCOCC2)c1` (stereo not drawn) [CBK305621], the “% of control remaining” value is reported as 120.657%.
In the case of `COc1cccc(Cn2c(=O)c3sccc3n(CC(=O)NCc3ccc(C)cc3)c2=O)c1` [CBK300533], the “% of control remaining” value is reported as 126.424%.
For `Cc1ccc(-c2nc(C)c(C(=O)NCc3ccnc(-n4ccnc4)c3)s2)o1` [CBK298322], the “% of control remaining” value was 130.13%.
With `Cc1c(C(=O)NCCCCn2ccnc2)oc2c(C)cccc12` [CBK283315] the “% of control remaining” value was 75.3794%.
For `O=[N+]([O-])c1cc(S(=O)(=O)Nc2ccc3[nH]ncc3c2)ccc1Cl` [CBK062537], the “% of control remaining” value was 96.6901%.
For `C=CCc1ccc(OCC(=O)NN)c(OC)c1` [CBK261831], the “% of control remaining” value was 117.705%.
For `Cc1noc(C)c1S(=O)(=O)NC1CCN(Cc2ccccc2)CC1` [CBK062028], the “% of control remaining” value was 142.949%.
`O=C(NCCCc1ccccn1)c1cc(-c2cccs2)no1` [CBK282652] was tested, and the “% of control remaining” value was 104.859%.
For `Cc1cc(=O)[nH]c(SCCC(=O)O)n1` [CBK268242], the “% of control remaining” value was 106.923%.
For `O=S(=O)(c1ccc(OC(F)(F)F)cc1)N1CCc2ccccc21` [CBK044279], the “% of control remaining” value was 67.1721%.
`Cc1oc(C(=O)Nc2cccc(CCc3ccncc3)c2)cc1CN1CCOCC1` [CBK285547] was tested, and the “% of control remaining” value was 150.299%.
`COc1ccc(-n2cc(-c3ccc(F)cc3)nn2)cc1` [CBK113111] was tested, and the “% of control remaining” value was 69.4882%.
`C=CCN1C(=O)C2(CC(=O)N(CC)C2=O)c2cc(F)ccc21` (stereo not drawn) [CBK075318] was tested, and the “% of control remaining” value was 99.1624%.
With `COc1ccccc1NC(=O)c1ccc(OC(C)C(=O)O)cc1` (stereo not drawn) [CBK266109] the “% of control remaining” value was 160.391%.
`Ic1ccc2ncnc(NCCN3CCOCC3)c2c1` [CBK265655] was tested, and the “% of control remaining” value was 107.609%.
`CCCS(=O)(=O)N1CCN(C(=O)COc2ccc3ccccc3c2)CC1` [CBK264290] was tested, and the “% of control remaining” value was 99.1674%.
`COc1cccc(CCNC(=O)NC(=O)C2CCN(S(C)(=O)=O)CC2)c1` [CBK034860] was tested, and the “% of control remaining” value was 154.2%.
In the case of `CCOc1c(CNCCN2CCOCC2)cccc1OC` [CBK278182C], the “% of control remaining” value is reported as 145.436%.
In the case of `Cc1cccc(-n2c(N)cc(=O)nc2SC(C)C(=O)Nc2ccc(S(N)(=O)=O)cc2)c1` (stereo not drawn) [CBK266173], the “% of control remaining” value is reported as 152.172%.
For `O=C1Cc2cc3ccccc3cc2C2(CCN(C(=O)c3ccccc3C(=O)O)CC2)N1` [CBK047216], the “% of control remaining” value was 120.453%.
`O=C(O)C1CCCCC1C(=O)N1CCN(Cc2cccc3ccccc23)CC1` (stereo not drawn) [CBK270293] was tested, and the “% of control remaining” value was 143.107%.
In the case of `Cc1ccc(NS(=O)(=O)c2ccc(CCC(=O)N3CCc4ccccc4C3)cc2)cc1` [CBK267616], the “% of control remaining” value is reported as 103.829%.
`Cc1nn(C)c(C)c1CC(=O)Nc1nc(C(C)(C)C)cs1` [CBK250992] was tested, and the “% of control remaining” value was 83.0956%.
For `O=C(Nc1ccc(=O)n2c1[C@@H]1C[C@@H](CN(C(=O)c3ccc(F)cc3)C1)C2)c1cncnc1` [CBK288713], the “% of control remaining” value was 124.206%.
`Cc1nn(C)c(C)c1CC(=O)NC1CCN(c2c(F)cccc2F)C1` (stereo not drawn) [CBK306307] was tested, and the “% of control remaining” value was 89.2994%.
`CNC(=O)c1ccc(-c2ccc(CNC(=O)C(C)Oc3ccc(C)c(C)c3)cc2)nc1C` (stereo not drawn) [CBK286014] was tested, and the “% of control remaining” value was 112.937%.
For `Cn1c(N)nc2c(ncn2[C@H]2C[C@@H](O)[C@@H](CO)O2)c1=O` [CBK201215], the “% of control remaining” value was 125.612%.
With `C#C[C@H]1C[N@@]2CC[C@H]1C[C@@H]2CNS(=O)(=O)c1cccc(C#N)c1` [CBK288753] the “% of control remaining” value was 116.08%.
`CS(=O)(=O)N(CC(=O)NCc1ccccn1)c1cc(Cl)cc(Cl)c1` [CBK266459] was tested, and the “% of control remaining” value was 143.817%.
With `COc1ccc([C@@]23CC[C@@H](NC(=O)Nc4cccc(-c5nn[nH]n5)c4)C[C@@H]2N(C)CC3)cc1OC` [CBK051273T] the “% of control remaining” value was 105.15%.
For `CCOC(=O)c1sc(NC(=O)c2ccccc2Br)nc1C` [CBK067745], the “% of control remaining” value was 109.821%.
For `CCc1ccc2[nH]c(=O)c(CN(CCN(C)C)C(=S)NCc3ccccc3)cc2c1` [CBK134905], the “% of control remaining” value was 111.293%.
In the case of `c1ccc2c(CCN3CCC(Oc4nccnc4OCCN4CCOCC4)CC3)c[nH]c2c1` [CBK082939T], the “% of control remaining” value is reported as 127.001%.
With `COc1nc(OC)nc(Sc2ccc(N)cc2)n1` [CBK019319] the “% of control remaining” value was 126.854%.
For `COCCNC(=O)CC1Sc2ccccc2NC1=O` (stereo not drawn) [CBK268443], the “% of control remaining” value was 115.427%.
`CCC(=O)NC(=S)Nc1cccc(NC(=O)c2cccc(Cl)c2)c1` [CBK058759] was tested, and the “% of control remaining” value was 100%.
For `COc1cccc(C2C(C(=O)c3ccc(Cl)cc3)=C(O)C(=O)N2CCN2CCOCC2)c1` (stereo not drawn) [CBK264901], the “% of control remaining” value was 91.1941%.
`O=S(=O)(c1ccccc1)n1c(CO)cc2c(C(F)(F)F)cc(CN3CCNCC3)cc21` [CBK143799] was tested, and the “% of control remaining” value was 115.013%.
With `O=C(O)CNC(=O)/C(=C\c1ccccc1F)NC(=O)c1ccccc1` [CBK263961] the “% of control remaining” value was 112.648%.
In the case of `Cc1ccc(CCC(=O)N(CCC#N)C2CCOCC2)c(C)c1` [CBK305809], the “% of control remaining” value is reported as 106.828%.
For `COc1ncc(-c2cc(N3CCN(c4ccccn4)CC3)ncn2)c(OC)n1` [CBK037707], the “% of control remaining” value was 208.442%.
For `COC(=O)c1ccc(-c2ccc(Cl)c(Cl)c2)nc1` [CBK149231], the “% of control remaining” value was 150.016%.
In the case of `CCn1cc(C(C)NC(=S)Nc2ccc(OC)cc2OC)c(C)n1` (stereo not drawn) [CBK266950], the “% of control remaining” value is reported as 149.802%.
For `CN1CCN(C(=O)CCn2c(C(F)F)cc3cccnc32)CC1` [CBK285023], the “% of control remaining” value was 112.522%.
With `O=C(NC/C=C/c1cn(C2CC(O)C(CO)O2)c(=O)[nH]c1=O)C(F)(F)F` (stereo not drawn) [CBK201249] the “% of control remaining” value was 104.156%.
In the case of `Cc1cnn(C2CCCN(C(=O)CC3C(=O)Nc4ccccc43)C2)c1` (stereo not drawn) [CBK304930], the “% of control remaining” value is reported as 63.4735%.
In the case of `COc1ccc(N2C(=O)CC(NCCNc3ccc([N+](=O)[O-])cn3)C2=O)cc1` (stereo not drawn) [CBK263593], the “% of control remaining” value is reported as 126.568%.
`CCN1CCN(c2ccc(NC(=O)c3ccc([N+](=O)[O-])c(C)c3)cc2)CC1` [CBK266503] was tested, and the “% of control remaining” value was 193.155%.
In the case of `O=C(NNC(=O)c1ccccc1C(=O)O)c1cccc(Cl)c1` [CBK261658], the “% of control remaining” value is reported as 100%.
`COc1ccccc1CNCCCN1CCOCC1` [CBK278310C] was tested, and the “% of control remaining” value was 178.471%.
For `COC(=O)c1ccsc1NS(=O)(=O)c1ccc(Br)cc1` [CBK039058], the “% of control remaining” value was 156.004%.
With `CN(C)Cc1ccc(C(=O)NCC(C)(C)N2CCCCC2)cc1` [CBK281865] the “% of control remaining” value was 107.748%.
`O=C(CN(c1ccccc1)S(=O)(=O)c1ccccc1[N+](=O)[O-])NC1CCCCC1` [CBK262328] was tested, and the “% of control remaining” value was 101.134%.
`Cn1cc(CCC(=O)NC(Cc2ccncc2)[C@H]2C[C@H](O)C2)cn1` (stereo partly drawn) [CBK307292] was tested, and the “% of control remaining” value was 120.046%.
`NS(=O)(=O)c1ccc(Nc2nc(-c3ccccc3)c(CC(=O)O)s2)cc1` [CBK131899] was tested, and the “% of control remaining” value was 88.2647%.
With `NC(=O)CCN1CCCC2(CCN(C(=O)c3ccoc3)C2)C1` (stereo not drawn) [CBK132816] the “% of control remaining” value was 90.3901%.
In the case of `CC(=O)N1CCc2cc(-c3cc4ccccn4c3)ccc21` [CBK285224], the “% of control remaining” value is reported as 122.314%.
`O=S(=O)(Nc1cccnc1)N1CCOCC1` [CBK269362] was tested, and the “% of control remaining” value was 119.88%.
In the case of `CCOC(=O)c1cnn2c(O)cc(CN3CCCCC3)nc12` [CBK305585], the “% of control remaining” value is reported as 133.137%.
In the case of `CN(C)CCN(C)c1cncc(-c2cccc(N)c2)n1` [CBK065270], the “% of control remaining” value is reported as 189.313%.
With `CCCc1ccc(C(C)NC(=O)C2CC2C)cc1` (stereo not drawn) [CBK057847] the “% of control remaining” value was 89.424%.
For `CCC(CN1CCN(C)CC1)NC(=O)Cc1ccc2c(c1)CCC2` (stereo not drawn) [CBK282784], the “% of control remaining” value was 106.906%.
`Cc1cc(O)cc(C2CCCN(C(=O)c3ccc(F)c(F)c3)C2)n1` (stereo not drawn) [CBK283406] was tested, and the “% of control remaining” value was 107.404%.
With `O=C(c1ccc2ncccc2c1)N1CCN(Cc2ccccc2)CC1` [CBK200175] the “% of control remaining” value was 133.741%.
For `CCCCN(C(C)=O)c1c(CC)nc2ccc(C(=O)N(C)CCN(C)C)cn12` [CBK145739], the “% of control remaining” value was 118.427%.
In the case of `C[S+]([O-])c1sc(Cl)c2c1C(=O)CCC2` (stereo not drawn) [CBK005657], the “% of control remaining” value is reported as 103.562%.
With `COc1ccc(N2C(=S)N(CC3CCCCC3)[C@H]3[C@H]4OC(=O)[C@H](C[C@H]4O)[C@H]32)cc1` [CBK288939] the “% of control remaining” value was 102.837%.
In the case of `CCn1c2ccccc2c2cc(CN(C)Cc3ccccc3)ccc21` [CBK261901], the “% of control remaining” value is reported as 99.0279%.
With `COc1cccc(OC)c1-c1cn2ccnc2c(N[C@H](CO)C(C)C)n1` [CBK036586] the “% of control remaining” value was 86.9045%.
`CN1CCN(c2ccc(NC(=O)c3ccc(OCc4ccccc4)cc3)cc2Cl)CC1` [CBK269080] was tested, and the “% of control remaining” value was 103.156%.
`CC(C)n1cc(CN2CCNC(=O)C2c2ccccc2C(F)(F)F)nn1` (stereo not drawn) [CBK304732] was tested, and the “% of control remaining” value was 87.7873%.
`CCOC(=O)c1c(NC(=O)Cn2cnc([N+](=O)[O-])n2)sc2c1CCC2` [CBK263042] was tested, and the “% of control remaining” value was 100%.
`CN1CCN(N/C=C2/C(=O)N(c3ccc([N+](=O)[O-])cc3)N=C2c2ccccc2)CC1` [CBK262763] was tested, and the “% of control remaining” value was 129.607%.
In the case of `Cc1ccc([N+](=O)[O-])cc1/C=C(/C#N)c1nc2ccccc2s1` [CBK267085], the “% of control remaining” value is reported as 93.6714%.
For `CSc1nc2ccccc2c2nc(-c3ccncc3)nn12` [CBK288566], the “% of control remaining” value was 150.545%.
With `CCOc1cc(C=Cc2cc(C(=O)O)c3ccccc3n2)ccc1OC(F)F` [CBK296952] the “% of control remaining” value was 126.455%.
`O=C(Nc1ccc2nonc2c1)N1CCOCC1` [CBK057530] was tested, and the “% of control remaining” value was 147.483%.
In the case of `O=C(NCC1CCCO1)c1cc(S(=O)(=O)N2CCOCC2)c(Cl)cc1Cl` (stereo not drawn) [CBK269691], the “% of control remaining” value is reported as 128.773%.
